Laboratory results reported in the supplement of paper PMC10849652.
The list shows a part of the results.

The chains behind the UniProt entries cited, without tags or fusion partners. Where a name states a change or a piece, a line headed by the entry shows the natural chain unless it says otherwise.
UniProt Q9NTJ4: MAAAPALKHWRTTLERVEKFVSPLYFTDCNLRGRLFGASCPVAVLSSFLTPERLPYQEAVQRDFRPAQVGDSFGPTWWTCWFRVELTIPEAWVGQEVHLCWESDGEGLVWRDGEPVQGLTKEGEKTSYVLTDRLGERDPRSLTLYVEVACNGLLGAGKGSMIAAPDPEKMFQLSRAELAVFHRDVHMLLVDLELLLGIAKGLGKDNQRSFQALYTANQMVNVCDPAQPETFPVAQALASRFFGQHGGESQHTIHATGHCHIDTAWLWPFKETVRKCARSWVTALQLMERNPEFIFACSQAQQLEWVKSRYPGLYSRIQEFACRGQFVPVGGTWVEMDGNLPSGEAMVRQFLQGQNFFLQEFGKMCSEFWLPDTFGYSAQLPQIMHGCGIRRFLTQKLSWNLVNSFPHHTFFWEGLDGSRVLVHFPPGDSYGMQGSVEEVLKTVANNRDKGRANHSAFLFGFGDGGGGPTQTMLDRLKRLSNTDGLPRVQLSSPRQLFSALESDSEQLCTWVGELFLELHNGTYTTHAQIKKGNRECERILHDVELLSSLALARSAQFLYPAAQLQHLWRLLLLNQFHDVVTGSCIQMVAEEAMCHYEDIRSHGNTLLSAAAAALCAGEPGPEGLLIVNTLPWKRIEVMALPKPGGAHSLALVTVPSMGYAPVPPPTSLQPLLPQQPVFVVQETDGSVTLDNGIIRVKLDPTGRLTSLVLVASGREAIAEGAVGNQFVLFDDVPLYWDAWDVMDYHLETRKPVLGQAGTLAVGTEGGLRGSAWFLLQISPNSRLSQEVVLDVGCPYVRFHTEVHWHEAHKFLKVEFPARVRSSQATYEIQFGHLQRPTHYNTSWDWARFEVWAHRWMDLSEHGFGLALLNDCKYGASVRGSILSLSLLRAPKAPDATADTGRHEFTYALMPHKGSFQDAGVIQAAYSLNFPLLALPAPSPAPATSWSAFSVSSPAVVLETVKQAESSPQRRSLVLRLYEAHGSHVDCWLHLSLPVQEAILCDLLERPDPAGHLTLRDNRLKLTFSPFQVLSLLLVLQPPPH
UniProt Q15691: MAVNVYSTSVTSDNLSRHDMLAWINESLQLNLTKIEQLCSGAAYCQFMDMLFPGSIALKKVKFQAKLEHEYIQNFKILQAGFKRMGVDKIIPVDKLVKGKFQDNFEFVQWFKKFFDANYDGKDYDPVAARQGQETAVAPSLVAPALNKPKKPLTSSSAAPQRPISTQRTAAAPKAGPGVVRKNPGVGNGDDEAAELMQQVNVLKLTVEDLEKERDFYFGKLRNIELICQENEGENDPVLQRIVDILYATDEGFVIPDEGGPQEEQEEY
UniProt Q9UNF1: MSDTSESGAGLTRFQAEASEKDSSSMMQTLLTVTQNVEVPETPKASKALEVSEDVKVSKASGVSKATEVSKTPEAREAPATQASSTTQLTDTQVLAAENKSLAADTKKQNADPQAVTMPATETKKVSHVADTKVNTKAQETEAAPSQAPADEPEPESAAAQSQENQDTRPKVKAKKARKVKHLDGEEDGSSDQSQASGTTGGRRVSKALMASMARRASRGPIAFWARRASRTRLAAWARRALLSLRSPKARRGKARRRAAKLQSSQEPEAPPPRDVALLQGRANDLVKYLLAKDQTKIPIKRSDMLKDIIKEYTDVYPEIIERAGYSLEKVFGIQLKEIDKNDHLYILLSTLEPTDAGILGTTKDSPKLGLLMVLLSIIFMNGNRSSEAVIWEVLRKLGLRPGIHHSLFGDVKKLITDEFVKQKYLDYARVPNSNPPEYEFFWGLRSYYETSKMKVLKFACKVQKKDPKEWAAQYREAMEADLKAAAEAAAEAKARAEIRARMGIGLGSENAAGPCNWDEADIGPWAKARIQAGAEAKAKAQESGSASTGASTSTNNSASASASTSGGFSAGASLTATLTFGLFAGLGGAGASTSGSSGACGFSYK
UniProt P46821: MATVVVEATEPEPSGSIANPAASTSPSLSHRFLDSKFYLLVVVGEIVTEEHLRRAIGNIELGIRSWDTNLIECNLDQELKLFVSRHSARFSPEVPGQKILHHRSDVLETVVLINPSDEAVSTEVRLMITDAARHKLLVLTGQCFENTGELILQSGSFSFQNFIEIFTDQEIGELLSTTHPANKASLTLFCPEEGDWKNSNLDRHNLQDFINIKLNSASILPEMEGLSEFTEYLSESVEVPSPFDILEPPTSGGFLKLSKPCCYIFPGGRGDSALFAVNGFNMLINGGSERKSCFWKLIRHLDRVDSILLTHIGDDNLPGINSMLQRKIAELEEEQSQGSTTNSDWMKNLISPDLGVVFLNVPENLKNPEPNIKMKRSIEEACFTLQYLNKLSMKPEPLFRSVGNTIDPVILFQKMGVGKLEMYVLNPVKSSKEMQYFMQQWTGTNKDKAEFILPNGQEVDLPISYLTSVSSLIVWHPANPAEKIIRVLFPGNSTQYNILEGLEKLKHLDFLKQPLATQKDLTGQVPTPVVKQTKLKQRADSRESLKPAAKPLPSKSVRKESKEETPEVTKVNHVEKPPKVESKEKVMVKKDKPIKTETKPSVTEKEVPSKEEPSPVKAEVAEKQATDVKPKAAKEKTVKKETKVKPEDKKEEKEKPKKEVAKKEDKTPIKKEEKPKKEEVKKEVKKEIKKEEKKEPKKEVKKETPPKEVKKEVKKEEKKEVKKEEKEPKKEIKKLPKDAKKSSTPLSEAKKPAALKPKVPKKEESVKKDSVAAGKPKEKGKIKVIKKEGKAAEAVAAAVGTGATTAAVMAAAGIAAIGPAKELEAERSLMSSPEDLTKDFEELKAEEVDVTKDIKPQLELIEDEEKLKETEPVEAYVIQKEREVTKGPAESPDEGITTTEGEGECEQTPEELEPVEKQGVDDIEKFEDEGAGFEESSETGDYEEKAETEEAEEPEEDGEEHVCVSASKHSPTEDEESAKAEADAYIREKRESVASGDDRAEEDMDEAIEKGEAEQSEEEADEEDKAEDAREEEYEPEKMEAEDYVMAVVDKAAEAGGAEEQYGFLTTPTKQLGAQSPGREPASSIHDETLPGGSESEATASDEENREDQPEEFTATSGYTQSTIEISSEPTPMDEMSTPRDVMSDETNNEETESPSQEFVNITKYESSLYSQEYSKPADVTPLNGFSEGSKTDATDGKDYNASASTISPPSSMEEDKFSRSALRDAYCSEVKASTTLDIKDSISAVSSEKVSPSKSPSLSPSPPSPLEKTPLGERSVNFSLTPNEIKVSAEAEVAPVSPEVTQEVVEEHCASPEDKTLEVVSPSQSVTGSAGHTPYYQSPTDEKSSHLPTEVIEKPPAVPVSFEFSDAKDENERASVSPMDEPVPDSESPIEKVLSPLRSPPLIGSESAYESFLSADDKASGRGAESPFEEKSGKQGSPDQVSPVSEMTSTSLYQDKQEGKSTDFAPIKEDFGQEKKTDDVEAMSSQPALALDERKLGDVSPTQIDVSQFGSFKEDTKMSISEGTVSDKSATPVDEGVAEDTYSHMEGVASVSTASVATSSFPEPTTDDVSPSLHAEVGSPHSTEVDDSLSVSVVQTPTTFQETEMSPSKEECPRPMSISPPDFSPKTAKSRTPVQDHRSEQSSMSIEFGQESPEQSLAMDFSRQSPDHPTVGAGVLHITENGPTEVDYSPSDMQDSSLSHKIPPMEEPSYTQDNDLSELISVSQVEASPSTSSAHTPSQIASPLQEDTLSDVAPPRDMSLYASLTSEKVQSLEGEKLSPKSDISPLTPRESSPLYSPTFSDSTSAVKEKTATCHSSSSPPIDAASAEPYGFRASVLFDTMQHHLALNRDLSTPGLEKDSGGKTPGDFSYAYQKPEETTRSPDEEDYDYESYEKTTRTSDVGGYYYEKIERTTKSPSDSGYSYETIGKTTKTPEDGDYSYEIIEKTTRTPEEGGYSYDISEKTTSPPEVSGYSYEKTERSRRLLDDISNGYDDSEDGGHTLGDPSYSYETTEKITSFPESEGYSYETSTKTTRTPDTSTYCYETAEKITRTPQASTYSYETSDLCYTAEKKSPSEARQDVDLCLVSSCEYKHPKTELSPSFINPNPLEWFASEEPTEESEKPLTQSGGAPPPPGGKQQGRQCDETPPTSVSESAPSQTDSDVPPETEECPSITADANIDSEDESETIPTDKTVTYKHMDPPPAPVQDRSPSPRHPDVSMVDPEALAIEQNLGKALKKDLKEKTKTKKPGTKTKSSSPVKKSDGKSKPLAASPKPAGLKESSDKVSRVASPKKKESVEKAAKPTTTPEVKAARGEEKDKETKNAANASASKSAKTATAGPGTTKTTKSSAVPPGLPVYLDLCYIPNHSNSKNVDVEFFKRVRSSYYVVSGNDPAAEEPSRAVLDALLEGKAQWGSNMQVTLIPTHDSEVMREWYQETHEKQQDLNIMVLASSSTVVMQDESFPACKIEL
UniProt Q9NQ29: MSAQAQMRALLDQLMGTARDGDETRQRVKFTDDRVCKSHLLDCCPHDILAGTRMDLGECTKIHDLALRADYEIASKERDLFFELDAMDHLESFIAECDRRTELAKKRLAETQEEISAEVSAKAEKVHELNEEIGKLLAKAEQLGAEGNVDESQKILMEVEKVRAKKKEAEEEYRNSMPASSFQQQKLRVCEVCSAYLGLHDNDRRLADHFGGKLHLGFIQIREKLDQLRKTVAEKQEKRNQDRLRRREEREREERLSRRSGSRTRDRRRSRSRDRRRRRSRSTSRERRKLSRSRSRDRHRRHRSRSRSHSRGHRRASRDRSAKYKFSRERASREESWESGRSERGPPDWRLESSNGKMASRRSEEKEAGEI
UniProt P29966: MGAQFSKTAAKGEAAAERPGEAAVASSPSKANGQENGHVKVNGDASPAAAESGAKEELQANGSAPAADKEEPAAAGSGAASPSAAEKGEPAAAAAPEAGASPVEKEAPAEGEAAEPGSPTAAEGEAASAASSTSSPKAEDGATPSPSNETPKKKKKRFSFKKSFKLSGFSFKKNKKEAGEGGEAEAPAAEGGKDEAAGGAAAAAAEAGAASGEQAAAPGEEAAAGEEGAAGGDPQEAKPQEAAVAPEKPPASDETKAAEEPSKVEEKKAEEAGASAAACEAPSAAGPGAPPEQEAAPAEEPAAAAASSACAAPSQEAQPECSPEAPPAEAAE
UniProt Q16659, whole entry, looked up: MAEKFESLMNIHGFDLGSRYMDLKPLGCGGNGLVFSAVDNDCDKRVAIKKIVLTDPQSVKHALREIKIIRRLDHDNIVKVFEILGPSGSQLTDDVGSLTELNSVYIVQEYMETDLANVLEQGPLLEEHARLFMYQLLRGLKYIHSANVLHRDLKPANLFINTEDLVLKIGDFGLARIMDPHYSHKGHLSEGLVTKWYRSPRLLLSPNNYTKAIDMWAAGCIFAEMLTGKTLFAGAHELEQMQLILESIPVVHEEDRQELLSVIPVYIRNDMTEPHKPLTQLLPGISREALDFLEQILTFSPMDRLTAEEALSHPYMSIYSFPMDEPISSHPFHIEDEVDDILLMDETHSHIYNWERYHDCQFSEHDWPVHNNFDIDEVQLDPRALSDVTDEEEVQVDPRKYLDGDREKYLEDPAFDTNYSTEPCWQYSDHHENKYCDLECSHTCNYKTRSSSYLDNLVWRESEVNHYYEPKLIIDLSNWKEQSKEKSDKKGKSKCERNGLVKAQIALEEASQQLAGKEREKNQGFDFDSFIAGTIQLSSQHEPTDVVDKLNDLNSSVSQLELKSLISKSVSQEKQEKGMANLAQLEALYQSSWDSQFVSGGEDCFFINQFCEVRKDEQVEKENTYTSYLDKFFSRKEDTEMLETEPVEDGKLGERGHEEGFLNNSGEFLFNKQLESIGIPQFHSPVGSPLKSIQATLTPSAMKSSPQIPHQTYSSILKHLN
UniProt P43362: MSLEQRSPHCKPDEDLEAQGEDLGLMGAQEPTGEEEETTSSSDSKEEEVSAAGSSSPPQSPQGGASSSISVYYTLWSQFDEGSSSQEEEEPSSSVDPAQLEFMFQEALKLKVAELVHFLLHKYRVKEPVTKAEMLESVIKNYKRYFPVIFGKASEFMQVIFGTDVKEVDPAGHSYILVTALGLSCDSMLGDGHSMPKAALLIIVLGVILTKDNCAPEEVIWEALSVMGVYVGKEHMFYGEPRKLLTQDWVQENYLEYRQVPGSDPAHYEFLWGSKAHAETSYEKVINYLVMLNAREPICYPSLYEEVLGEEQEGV
UniProt Q9H0U3: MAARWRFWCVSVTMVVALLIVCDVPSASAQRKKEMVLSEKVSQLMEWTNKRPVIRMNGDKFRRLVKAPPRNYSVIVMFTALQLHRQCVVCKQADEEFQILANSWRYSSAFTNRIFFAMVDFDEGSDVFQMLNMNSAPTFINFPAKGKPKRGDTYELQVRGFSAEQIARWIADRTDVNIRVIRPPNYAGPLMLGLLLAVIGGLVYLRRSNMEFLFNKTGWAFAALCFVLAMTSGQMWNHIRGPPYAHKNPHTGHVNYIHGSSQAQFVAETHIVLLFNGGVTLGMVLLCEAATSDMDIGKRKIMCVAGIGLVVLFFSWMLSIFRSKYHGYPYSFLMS

What was measured:
Experiment in all cases: log2 fold change, soluble protein after heating vs DMSO (PISA); higher = thermal stabilisation; K562 lysate, 10 uM; active = over 0.2 and 3.5 SD of the protein, either way, in both replicates (recomputed)
[1] = compound: CCCS(=O)(=O)Nc1ccc(F)c(C(=O)c2c[nH]c3ncc(-c4ccc(Cl)cc4)cc23)c1F [vemurafenib]
Procedure, shortened: (§1)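 Soluble protein was defined as the supernatant remaining after 21,000xg for 90 min, following pooling of heated aliquots and adjustment to 0.5% NP-40 at 4°C. Before that, crude K562 extract at 1 mg/mL protein in PBS pH 7.4 with 1 mM MgCl2 was treated with 10 μM compound for 30 min and heated for 3 min across 48°C-58°C. Quantification used TMTpro 16plex LC-MS/MS with channel sums equalised, and values are log-two fold changes in thermal stability relative to solvent controls from duplicates.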

[2] = compound: CCCS(=O)(=O)Nc1ccc(F)c(C(=O)c2c[nH]c3ncc(Cl)cc23)c1F
Procedure, shortened: as §1

[3] = compound: CCN(CCCOc1ccc2c(Nc3cc(CC(=O)Nc4cccc(F)c4)[nH]n3)ncnc2c1)CCOP(=O)(O)O [barasertib]
Procedure, shortened: as §1

[4] = compound: CC[C@@H]1C(=O)N(C)c2cnc(Nc3ccc(C(=O)NC4CCN(C)CC4)cc3OC)nc2N1C1CCCC1
Procedure, shortened: as §1

[5] = compound: CC[C@@H]1C(=O)N(C)c2cnc(Nc3ccc(C(=O)N[C@H]4CC[C@H](N5CCN(CC6CC6)CC5)CC4)cc3OC)nc2N1C(C)C [volasertib]
Procedure, shortened: as §1

[6] = compound: CCn1c(C(=O)N(C2CC2)C2CC2)cc2c3c(ncn3C)c(Nc3cc(C)n(C)n3)nc21
Procedure, shortened: as §1

[7] = compound: CCn1cc(-c2ccnc3[nH]c(-c4cccc(CN(C)C)c4)cc23)c(-c2ccc(NC(=O)N(C)C)cc2)n1
Procedure, shortened: as §1

[8] = compound: CN1CCC(CNc2ccc3ncc(-c4cccc(OC(F)(F)F)c4)n3n2)CC1
Procedure, shortened: as §1

[9] = compound: CN1CCN(CCOc2cc(OC3CCOCC3)c3c(Nc4c(Cl)ccc5c4OCO5)ncnc3c2)CC1 [saracatinib]
Procedure, shortened: as §1

[10] = compound: CN1CCN(c2nc(C3=C(c4c[nH]c5ccccc45)C(=O)NC3=O)c3ccccc3n2)CC1 [sotrastaurin]
Procedure, shortened: as §1

[11] = compound: CN1CC[C@H](c2c(O)cc(O)c3c(=O)cc(-c4ccccc4Cl)oc23)[C@H](O)C1 [alvocidib]
Procedure, shortened: as §1

[12] = compound: CN1CCc2c(c3ccccc3n2Cc2ccc(C(=O)NO)cc2)C1 [Tubastatin A]
Procedure, shortened: as §1

[13] = compound: CNC(=O)C1=CC=CC=C1NC2=NC(=NC=C2Cl)NC3=C(C=C(C=C3)N4CCOCC4)OC
Procedure, shortened: as §1

[14] = compound: CNC(=O)c1ccc(Nc2ncc(C(F)(F)F)c(NCc3nccnc3N(C)S(C)(=O)=O)n2)cc1 [defactinib]
Procedure, shortened: as §1

[15] = compound: CNc1nc(-c2ccc3c(N)n[nH]c3c2)cc(N2C[C@@H](C(=O)NC3CCCCC3)CC[C@H]2C)n1
Procedure, shortened: as §1

[16] = compound: COC(=O)N[C@@H](C)CNc1nccc(-c2cn(C(C)C)nc2-c2cc(Cl)cc(NS(C)(=O)=O)c2F)n1 [encorafenib]
Procedure, shortened: as §1

[17] = compound: COC(=O)[C@H](CCSC)NC(=O)C1=C(C=C(C=C1)NC[C@H](CS)N)C2=CC=CC=C2
Procedure, shortened: as §1

[18] = compound: COc1cc(Nc2ncc3c(n2)-c2ccc(Cl)cc2C(c2c(F)cccc2OC)=NC3)ccc1C(=O)O [alisertib]
Procedure, shortened: as §1

[19] = compound: COc1cc2nc(-c3cc(F)ccc3O)nc(N[C@@H]3CNC[C@H]3C(C)(C)O)c2cc1OC
Procedure, shortened: as §1

[20] = compound: COc1cc2ncnc(Nc3ccc(F)c(Cl)c3)c2cc1OCCCN1CCOCC1 [gefitinib]
Procedure, shortened: as §1

Measured: log2 fold change

MAN2C1 isoform 4 (UniProt Q9NTJ4)
inactive: [1] -0.005 | [2] 0.051 | [3] -0.024 | [4] 0.027 | [5] 0.004 | [6] 0.007 | [7] -0.017 | [8] 0.054 | [9] -0.029 | [10] 0.03 | [11] -0.003 | [12] 0.017 | [13] 0.026 | [14] -0.046 | [15] 0.161 | [16] 0.075 | [17] -0.03 | [18] 0.076 | [19] -0.006 | [20] 0.051

MAPRE1 (UniProt Q15691)
inactive: [1] 0.006 | [2] -0.04 | [3] -0.01 | [4] 0.033 | [5] -0.001 | [6] 0.026 | [7] 0.095 | [8] -0.026 | [9] 0.006 | [10] -0.005 | [11] 0.023 | [12] 0.041 | [13] -0.031 | [14] 0.004 | [15] -0.04 | [16] -0.001 | [17] -0.071 | [18] -0.002 | [19] -0.026 | [20] 0.005

MASTL (UniProt Q96GX5)
inactive: [1] 0.039 | [2] -0.021 | [3] 0.058 | [4] 0.03 | [5] -0.031 | [6] -0.123 | [7] -0.231 | [8] 0.002 | [9] 0.006 | [10] -0.02 | [11] -0.01 | [12] -0.151 | [13] 0.007 | [14] -0.104 | [15] -0.017 | [16] 0 | [17] 0.008 | [18] 0.05 | [19] 0.08 | [20] -0.003

MAPRE3 (UniProt Q9UPY8)
inactive: [1] -0.059 | [2] -0.023 | [3] -0.004 | [4] -0.005 | [5] 0.001 | [6] 0.059 | [7] 0.186 | [8] -0.139 | [9] 0.057 | [10] 0 | [11] 0.049 | [12] -0.028 | [13] -0.007 | [14] -0.01 | [15] -0.018 | [16] 0.01 | [17] -0.032 | [18] 0.017 | [19] -0.016 | [20] 0.049

MAGED2 (UniProt Q9UNF1)
inactive: [1] 0.051 | [2] 0.031 | [3] 0.002 | [4] -0.019 | [5] 0 | [6] -0.092 | [7] 0.024 | [8] -0.089 | [9] 0.065 | [10] 0.009 | [11] 0.043 | [12] 0.015 | [13] 0.041 | [14] -0.118 | [15] -0.038 | [16] 0.039 | [17] 0.044 | [18] 0.007 | [19] 0.022 | [20] 0.079

MARK3 (UniProt P27448)
inactive: [1] -0.003 | [2] 0.036 | [3] -0.001 | [4] 0.038 | [5] 0.042 | [6] 0.005 | [7] -0.114 | [8] -0.237 | [9] -0.015 | [10] -0.228 | [11] -0.071 | [12] -0.119 | [13] -0.188 | [14] -0.158 | [15] 0.113 | [16] 0.038 | [17] 0.129 | [18] 0.006 | [19] 0.003 | [20] -0.02

MAGEB2 (UniProt O15479)
inactive: [1] -0.013 | [2] 0.02 | [3] 0.02 | [4] -0.019 | [5] 0.017 | [6] -0.013 | [7] -0.003 | [8] 0.01 | [9] 0.018 | [10] 0.018 | [11] 0.01 | [12] -0.003 | [13] 0.051 | [14] -0.007 | [15] -0.005 | [16] 0.041 | [17] -0.032 | [18] 0.048 | [19] -0.002 | [20] -0.018

MAP1B (UniProt P46821)
inactive: [1] -0.01 | [2] -0.004 | [3] -0.016 | [4] 0.022 | [5] 0.014 | [6] -0.022 | [7] 0.023 | [8] -0.01 | [9] 0 | [10] 0.012 | [11] 0.013 | [12] 0.032 | [13] 0.011 | [14] -0.011 | [15] -0.006 | [16] -0.013 | [17] -0.01 | [18] -0.025 | [19] 0.012 | [20] -0.021

LUC7L (UniProt Q9NQ29)
active: [11] -0.259
inactive: [1] 0.019 | [2] -0.014 | [3] 0.024 | [4] -0.072 | [5] 0.028 | [6] -0.004 | [7] 0.172 | [8] -0.008 | [9] -0.013 | [10] -0.068 | [12] 0.015 | [13] -0.117 | [14] -0.075 | [15] 0.002 | [16] 0.065 | [17] -0.039 | [18] 0.033 | [19] 0.01 | [20] 0.037

MARK1 (UniProt Q9P0L2)
inactive: [1] -0.006 | [2] 0.064 | [3] -0.038 | [4] -0.045 | [5] -0.019 | [6] -0.018 | [7] -0.06 | [8] -0.241 | [9] 0.021 | [10] -0.17 | [11] -0.053 | [12] -0.087 | [13] -0.27 | [14] -0.267 | [15] 0.072 | [16] 0.075 | [17] 0.226 | [18] -0.007 | [19] -0.134 | [20] -0.004

MARCKS (UniProt P29966)
inactive: [1] -0.095 | [2] 0.035 | [3] -0.012 | [4] -0.031 | [5] 0.066 | [6] 0.039 | [7] -0.11 | [8] 0.013 | [9] 0.039 | [10] 0.014 | [11] 0.041 | [12] 0.03 | [13] -0.014 | [14] 0.031 | [15] -0.07 | [16] -0.049 | [17] -0.188 | [18] -0.04 | [19] -0.056 | [20] 0.018

MAPK6 (UniProt Q16659)
inactive: [1] 0.006 | [2] 0.001 | [3] 0.047 | [4] 0.034 | [5] -0.001 | [6] -0.029 | [8] -0.02 | [9] -0.014 | [10] 0.014 | [11] 0.133 | [12] -0.086 | [13] 0.115 | [14] 0.049 | [15] -0.023 | [16] -0.037 | [17] -0.092 | [18] -0.001 | [19] 0.072 | [20] 0.113
active: [7] 0.221

MAGEA9 (UniProt P43362)
inactive: [1] 0.057 | [2] 0.023 | [3] 0.019 | [4] -0.013 | [5] -0.024 | [6] 0.031 | [7] -0.116 | [8] 0.061 | [9] -0.003 | [10] -0.033 | [11] -0.007 | [12] 0.019 | [13] 0.016 | [14] -0.006 | [15] 0.103 | [16] 0.025 | [17] -0.024 | [18] 0.022 | [19] 0.022 | [20] -0.005

MAN2A1 (UniProt Q16706)
inactive: [1] 0.025 | [2] -0.026 | [3] 0.007 | [4] 0.01 | [5] 0.02 | [6] 0.009 | [7] -0.04 | [8] -0.044 | [9] 0.011 | [10] 0.034 | [11] -0.053 | [12] 0.031 | [13] 0.013 | [14] 0.033 | [15] -0.041 | [16] -0.004 | [17] -0.071 | [18] -0.012 | [19] 0.011 | [20] 0.026

Fetched one by one from above (2):
MAN2A1 (UniProt Q16706)
inactive: [1] 0.025 | [2] -0.026 | [3] 0.007 | [4] 0.01 | [5] 0.02 | [6] 0.009 | [7] -0.04 | [8] -0.044 | [9] 0.011 | [10] 0.034 | [11] -0.053 | [12] 0.031 | [13] 0.013 | [14] 0.033 | [15] -0.041 | [16] -0.004 | [17] -0.071 | [18] -0.012 | [19] 0.011 | [20] 0.026

MARCKS (UniProt P29966)
inactive: [1] -0.095 | [2] 0.035 | [3] -0.012 | [4] -0.031 | [5] 0.066 | [6] 0.039 | [7] -0.11 | [8] 0.013 | [9] 0.039 | [10] 0.014 | [11] 0.041 | [12] 0.03 | [13] -0.014 | [14] 0.031 | [15] -0.07 | [16] -0.049 | [17] -0.188 | [18] -0.04 | [19] -0.056 | [20] 0.018

Next part:

MAGT1 (UniProt Q9H0U3)
inactive: [1] 0 | [2] 0 | [3] 0.004 | [4] 0.071 | [5] -0.013 | [6] -0.046 | [7] -0.079 | [8] 0.007 | [9] -0.004 | [10] 0.028 | [11] -0.025 | [12] -0.015 | [13] -0.002 | [14] 0.061 | [15] 0.025 | [16] 0.027 | [17] -0.003 | [18] -0.001 | [19] 0.009 | [20] -0.017

LYN (UniProt P07948)
inactive: [1] 0.285 | [2] 0.05 | [3] 0.258 | [4] -0.067 | [5] -0.134 | [6] 0.004 | [7] -0.012 | [8] 0.233 | [9] 0.605 | [10] -0.045 | [11] 0.026 | [12] -0.046 | [13] 0.203 | [14] 0.076 | [15] -0.092 | [16] -0.01 | [17] -0.072 | [18] 0.171 | [19] 0.26 | [20] -0.006
